Laboratory results as given in patent US7589206B2, “Pyrrolopyridine derivatives” (Glaxo Group Limited, priority 2004, dated 2009).
Some of these results come from one statement about several compounds together.

Sequences of proteins named here, by UniProt entry; tags and fusion partners are left off.
UniProt P34972, whole entry: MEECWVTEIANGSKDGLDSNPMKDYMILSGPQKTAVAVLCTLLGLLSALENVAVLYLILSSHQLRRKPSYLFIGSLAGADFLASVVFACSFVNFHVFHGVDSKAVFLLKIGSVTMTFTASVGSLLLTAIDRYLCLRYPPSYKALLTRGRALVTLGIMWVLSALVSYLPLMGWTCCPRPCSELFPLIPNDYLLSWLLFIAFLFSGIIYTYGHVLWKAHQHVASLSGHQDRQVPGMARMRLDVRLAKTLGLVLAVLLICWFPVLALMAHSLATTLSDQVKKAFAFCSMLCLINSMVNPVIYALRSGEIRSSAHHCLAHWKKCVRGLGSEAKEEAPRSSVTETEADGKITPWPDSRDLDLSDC

Molecular target: T1, human cannabinoid CB2 receptor (Homo sapiens, UniProt P34972)
T1 construct: expressed in transfected cells; host or cells: Saccharomyces cerevisiae strain MMY23 (Gpa1/Galphai3 chimeric G-protein alpha subunit)
Experiment: Cannabinoid CB2 receptor agonist activity in yeast cells expressing the receptor (FDGlu fluorescence)
Assay type: cell-based
Conditions: yeast assay; relative to HU210
Method: The cannabinoid CB2 receptor agonist activity of compounds of formula (I) was determined in accordance with the following experimental method.
Yeast (Saccharomyces cerevisiae) cells expressing the human cannabinoid CB2 receptor were generated by integration of an expression cassette into the ura3 chromosomal locus of yeast strain MMY23. This cassette consisted of DNA sequence encoding the human CB2 receptor flanked by the yeast GPD promoter to the 5′ end of CB2 and a yeast transcriptional terminator sequence to the 3′ end of CB2. MMY23 expresses a yeast/mammalian chimeric G-protein alpha subunit in which the C-terminal 5 amino acids of Gpa1 are replaced with the C-terminal 5 amino acids of human Gαi3 (as described in Brown et al. (2000), Yeast 16:11-22). […]
Agonists were prepared as 10 mM solutions in DMSO. […] After incubation at 30° C. for 24 hours, fluorescence resulting from degradation of FDGlu to fluorescein due to exoglucanase, an endogenous yeast enzyme produced during agonist-stimulated cell growth, was determined using a fluorescence microtitre plate reader (Tecan Spectrofluor or LJL Analyst excitation wavelength: 485 nm; emission wavelength: 535 nm). Fluorescence was plotted against compound concentration and iteratively curve fitted using a four parameter fit to generate a concentration effect value. […]

## Cc1cc(F)ccc1Nc1ncc(C(=O)N2CCOCC2)c2c1ccn2C.Cl [Example 183, N-(4-Fluoro-2-methylphenyl)-1-methyl-7-(4-morpholinylcarbonyl)-1H-pyrrolo[3,2-c]pyridin-4-amine hydrochloride]
  efficacy value at the cloned human cannabinoid CB2 receptor: > 50%
